Assay results as given in patent US10717090B2, “Depression of copper and iron sulfides in molybdenite flotation circuits” (TESSENDERLO KERLEY, INC., priority 2014, dated 2020).

Assay: Laboratory flotation test separating molybdenite from Cu/Mo concentrate with depressant
Details: for K (ratio of Mo concentration removed): K=[% Mo in concentrate-% Mo in tail]/[% Mo in feed-% Mo in tail]; for Conc., Wt % (weight percent floated compared to the feed weight) / Cu % (assay of the concentrate) / Fe % (assay of the concentrate) / Mo % (assay of the concentrate) / Tail Mo % (tailing molybdenum assay): lab flotation, averages of multiple series of testing

| Molecule | K (ratio of Mo concentration removed) | Conc., Wt % (weight percent floated compared to the feed weight) [%] | Cu % (assay of the concentrate) [%] | Fe % (assay of the concentrate) [%] | Mo % (assay of the concentrate) [%] | Tail Mo % (tailing molybdenum assay) [%] |
| --- | --- | --- | --- | --- | --- | --- |
| Sodium Polysulfide [NaPS] | 8.7 | 11.5 | 13.1 | 7.3 | 36.6 | 0.15 |
| Potassium Polysulfide [KPS] | 10.6 | 9.4 | 17.3 | 18.9 | 14.9 | 0.05 |
| Calcium Polysulfide [CaPS] | 11.3 | 8.8 | 18.9 | 17.9 | 15.9 | 0.07 |
| S [NaHS, Sodium hydrosulfide, reference compound] | 10.5 | 9.5 | 16.6 | 18.6 | 15.2 | 0.04 |
